Measurements published in patent US5266566A, “Method of treating fungal infections using sterodial ester compounds” (British Technology Group Limited, priority 1989, dated 1993).
For at least one compound, name, drawing or mass did not settle the structure.

Key:
[1] = tested on: Microsporum audonii NCPF 638; experiment: Disc diffusion antifungal test (zones of inhibition, approximate MIC); format: cell-based
Procedure: (§1) Candida albicans NCYC 597; Trichophyton mentagrophytes NCPF 224 and Microsporum audonii NCPF 638 were used throughout as test organisms. These are open deposits at the National Collection of Yeast Cultures, Norwich UK and the National Collection of Pathogenic Fungi of the Commonwealth Mycological Institute, Kew UK.
(§2) All organisms were maintained in a nutrient broth containing (gl^-1): Lab Lemco (Oxoid), 5; Peptone (Oxoid), 5; NaCl, 10. Cultures for testing antimicrobial activity were grown in this medium for 18 h prior to use. Solidified media were prepared by the addition of Agar (Oxoid No. 3) 1.5% w/v.
(§3) Antifungal activity was estimated using solutions of the compound (as the free acid) in dimethyl sulphoxide. A range of concentrations was used for each compound to permit calculation of an approximate MIC. 13 mm discs (Whatman) were soaked in a solution of the appropriate dilution, either allowed to dry, or placed directly onto the surface of nutrient agar plates seeded with the required test organism.
(§4) After 24 h incubation the diameters of zones of inhibition were measured. After a further 24 h incubation, the plates were re-examined and zones re-measured. The compounds were tested in three groups.

[2] = tested on: Trichophyton mentagrophytes NCPF 224; experiment: as above; format: cell-based
Procedure: as §1, §2, §3, §4

Q: With `CCCCCCCCCCCCOS(=O)(=O)O` [dodecyl sulphate, reference compound] as the compound, how does the “Activity against Microsporum audonii (in words)” value ([1]; result in words) read?
A: Its value is “had activity”.

Q: What about the “Combined activity with bile salts, M. audonii” value ([1]; with bile salts) of the same compound?
A: The value was “at least additive in activity with bile salts”.

Q: And the “Activity against T. mentagrophytes (in words)” value ([2]; result in words)?
A: Its value is “had activity”.

Q: What about the “Combined activity with bile salts, T. mentagrophytes” value ([2]; with bile salts) of the same compound?
A: The value was “at least additive in activity with bile salts”.
